The source of these data is article PMC4761961.

By UniProt entry, the sequences of proteins in these tests, tags left out. Residues count along the entry.
UniProt P03372, whole entry: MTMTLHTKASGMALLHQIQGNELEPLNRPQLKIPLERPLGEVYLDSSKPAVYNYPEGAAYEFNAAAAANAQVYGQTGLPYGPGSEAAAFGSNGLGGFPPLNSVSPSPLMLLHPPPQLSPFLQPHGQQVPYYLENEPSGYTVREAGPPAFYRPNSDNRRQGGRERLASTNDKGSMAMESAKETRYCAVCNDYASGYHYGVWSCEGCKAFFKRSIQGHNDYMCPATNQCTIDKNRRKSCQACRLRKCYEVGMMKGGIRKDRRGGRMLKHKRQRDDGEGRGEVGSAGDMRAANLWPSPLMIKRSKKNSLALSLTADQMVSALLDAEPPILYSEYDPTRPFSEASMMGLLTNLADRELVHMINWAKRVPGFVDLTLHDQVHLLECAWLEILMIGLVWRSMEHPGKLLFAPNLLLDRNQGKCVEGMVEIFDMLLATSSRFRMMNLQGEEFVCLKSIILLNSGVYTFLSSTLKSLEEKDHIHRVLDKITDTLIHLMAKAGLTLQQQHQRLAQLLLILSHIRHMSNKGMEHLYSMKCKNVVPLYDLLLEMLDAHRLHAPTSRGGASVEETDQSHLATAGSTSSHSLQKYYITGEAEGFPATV
UniProt P03372, 311-547: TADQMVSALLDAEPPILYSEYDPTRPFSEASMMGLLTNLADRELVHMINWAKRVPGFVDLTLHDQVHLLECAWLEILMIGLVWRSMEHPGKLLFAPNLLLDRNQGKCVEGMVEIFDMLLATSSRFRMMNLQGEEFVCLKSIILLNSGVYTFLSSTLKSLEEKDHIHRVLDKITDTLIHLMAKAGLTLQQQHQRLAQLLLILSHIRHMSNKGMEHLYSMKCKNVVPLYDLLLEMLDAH

Series [1] concerns the target Estrogen receptor alpha (ERα) (human) (UniProt P03372). Put plainly: ITC. Particulars: ITC: 10 mM Tris-HCl pH 8.0, 25 °C, 1 µM ERα in cell, 10 µM RNA in syringe.
For another series, the target named is ERα LBD (human) (UniProt P03372). Nature of the series: aptamer-assisted ELISA. Particulars: ELISA: 100 nM biotinylated ERaptR4, 2 h. A general note: An ELISA detects its analyte on a solid surface through an enzyme-linked reagent.
Series [2] deals with Progesterone receptor DBD. Put plainly: aptamer-assisted ELISA. Particulars: insignificant binding; ELISA: 100 nM biotinylated ERaptR4, 2 h.
The test system of series [3] is Progesterone receptor LBD. Nature of the series: aptamer-assisted ELISA. Conditions: insignificant binding; ELISA: 100 nM biotinylated ERaptR4, 2 h.
The target of series [4] is ERα in MCF-7 nuclear extract (human (MCF-7)) (UniProt P03372). Put plainly: aptamer-assisted western blot. Conditions: western blot: 1 µM ERaptR4; protein in an extract. For orientation: A western blot detects proteins with antibodies after separation by electrophoresis.

For at least one entry, the source does not settle the construct or the ends of the probe. For some assays here: Negatives hold for the conditions tested. For some assays here: Results from cells or extracts need not show a direct contact. For some assays here: At least one verdict rests on a figure or table, not on a statement of the authors.

On to AUCGUGUGCUGCUACGA [random 17-mer RNA], for which the binding result in series [1] is listed as “no binding”.

In the case of “GGGGUCAAGGUGACCCC [biotinylated ERaptR4]”, the binding result with ERα LBD (human) is “binds”; in series [2], “no binding”; in series [3], “no binding”; in series [4], “binds”.
